# Measurements reported in the supplement of paper PMC3334620.
# The full ranking holds about 33,000 sequences; the median of “E-score (-0.5 to 0.5)” is about -0.0014, and the highest 2% start at about 0.25. The list shows a part of the results.
# Biological target: T1, Cad1 (UniProt P24813)
# T1 sequence: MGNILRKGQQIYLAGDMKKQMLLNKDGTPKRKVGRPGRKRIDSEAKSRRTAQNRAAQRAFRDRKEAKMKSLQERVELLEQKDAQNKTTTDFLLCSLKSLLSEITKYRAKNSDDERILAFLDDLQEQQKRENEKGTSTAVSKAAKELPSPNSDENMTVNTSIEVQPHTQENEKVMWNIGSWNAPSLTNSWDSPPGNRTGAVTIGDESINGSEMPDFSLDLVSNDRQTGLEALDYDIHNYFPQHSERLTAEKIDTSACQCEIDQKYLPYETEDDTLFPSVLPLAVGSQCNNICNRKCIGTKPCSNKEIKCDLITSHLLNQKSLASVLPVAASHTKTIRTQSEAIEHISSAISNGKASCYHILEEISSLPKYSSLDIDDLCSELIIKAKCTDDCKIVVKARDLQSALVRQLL
# Test: PBM E-score (8-mer binding enrichment) (E-score (-0.5 to 0.5)); higher = stronger / more preferred TF binding
# Details: protein concentration: 100 nM; construct: GST-full length
# In short: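 Universal all-10-mer Agilent arrays, double-stranded by primer extension on fresh or once-stripped slides, were probed with about 100-200 nM GST-tagged yeast transcription factors made by PURExpress. Fluorescent anti-GST detected bound protein, and masliner normalised the scans. E-scores from the Universal PBM Analysis Suite were given to each ungapped eight-base word pooled with its reverse complement.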
row,Sequence,PBM E-score
1,CAGAATCA,0.172
2,GGTGCACC,-0.012
3,TCCGCGAA,0.202
4,AGAACTGC,-0.0232
5,GACAGTTA,0.00534
6,AGATCACG,0.0803
7,AAATAAAG,-0.0232
8,AGCACAGG,-0.0131
9,CGACTAAA,-0.0897
10,TCACTAAA,0.138
11,ATCACGAA,0.064
12,GAGAGTCC,-0.248
13,CTTTATGA,-0.0403
14,ACCTCGAT,-0.0127
15,AAGACAGG,-0.0424
16,AGTGTCCA,0.0266
17,CGACGCCA,-0.192
18,AATTGTAG,0.0815
19,CCGCGAAG,0.12
20,AAAAGCGG,-0.0296
21,CTCCAAAC,-0.0321
22,CTAGTTCC,0.138
23,GGTGTGCA,-0.162
24,TACTCCTA,-0.0421
25,GTGAACCA,0.188

# Part of the list above in another layout.
row	Sequence	PBM E-score
21	CTCCAAAC	-0.0321
22	CTAGTTCC	0.138
23	GGTGTGCA	-0.162
24	TACTCCTA	-0.0421
25	GTGAACCA	0.188

# Further records.

row,Sequence,PBM E-score
1,CACGTTTA,-0.0503
2,CTCACCTA,0.0145
3,AGTAGGAA,-0.239
4,CGGGGGAA,-0.236
5,AGTAGGTC,-0.138
6,AGGTCCCA,-0.17
7,CCAGGTGC,-0.133
8,AGCTTAGG,-0.0203
9,CCGGTCCA,-0.0927
10,ACCTAGAC,-0.0525
11,CAGGTCCG,-0.0966
12,AGGTGCAT,-0.0489
13,CAGCTGTC,0.253
14,GCTACCAC,-0.0847
15,AACACCGA,-0.167
16,AAGGGGTA,-0.37
17,TGCGTGAA,0.0712
18,CGAAACAG,0.137
19,AACTCTCC,-0.129
20,AGACATGC,-0.26
21,CGGCGCCG,0.242
22,TAAACTCA,0.104
23,CGAGTCAA,0.0827
24,CGCAGATC,0.098
25,CGACTACG,-0.208

row,Sequence,PBM E-score
1,CTGATACA,-0.0475
2,AGCCACAC,0.231
3,AAACTCAT,0.253
4,ATACCGTC,0.168
5,CATGAGCA,-0.0612
6,AAGTCTCC,-0.0902
7,CAATTGTG,0.034
8,CTAGACTC,-0.244
9,ATGCATGA,0.23
10,AAGCCTAA,-0.0126
11,ACGCGTCA,0.198
12,GTCTGACA,0.186
13,TAGGACGA,-0.0633
14,CCGACCGC,-0.182
15,TAACATCA,0.172
16,ACCCAGGG,-0.314
17,GAATCCGC,0.0707
18,ACGTGAGC,-0.0803
19,AGACCGTG,-0.034
20,GCCTACAC,-0.0759
21,CTGCGGGA,-0.166
22,ATTCGTGG,0.0778
23,AGCTCGCC,-0.0374
24,GTCTTGCA,0.0216
25,GCATCACA,0.132

# Four neighbouring entries out of the list so far:
row,Sequence,PBM E-score
18,ACGTGAGC,-0.0803
19,AGACCGTG,-0.034
20,GCCTACAC,-0.0759
21,CTGCGGGA,-0.166

# Later entries.

row,Sequence,PBM E-score
1,GCATCGAA,-0.11
2,AATCTACT,0.156
3,ACAGCTTA,0.0779
4,CTTGAAGA,0.00752
5,CGTAATGA,0.0114
6,ATAAGGAT,0.0493
7,CGAGGGTA,-0.17
8,TAATATGA,0.133
9,ACTATACA,0.0466
10,TGATCCAA,-0.0232
11,AAGTACTA,0.0986
12,AATGACGT,-0.0163
13,CATCCGCG,0.0393
14,ATAGCTAT,-0.0499
15,ATTGCGTA,0.179
16,AAGTGGCC,-0.155
17,TATAAAAA,0.192
18,AGAGGTAG,-0.158
19,AAGTCATT,-0.0862
20,CAATGAGC,0.059
21,CGGCGTCC,0.146
22,CGAGCCCA,-0.146
23,AGTCGCCC,-0.269
24,ACCGCTAC,-0.221
25,AGTCGGAT,-0.0138

row,Sequence,PBM E-score
1,CGCTATGA,0.119
2,ATGCTAGG,-0.0466
3,CTCGAGAA,0.0677
4,GTAAAACA,-0.0257
5,AGTAGTTA,-0.0271
6,GCTGGTAA,-0.0447
7,CGGCATCA,0.0303
8,AACCAGCG,0.0247
9,AGGGATAC,-0.1
10,GGTCAACA,0.212
11,CATTTTGC,0.143
12,CATCAACC,0.0881
13,ACAAACAC,0.262
14,GTTGCTGA,0.111
15,CCTTTTCC,-0.216
16,TACGAGCA,-0.137
17,GGAGATGA,0.0691
18,CGCTACCA,-0.193
19,AAACGAAC,0.0751
20,CAACACCA,0.0834
21,GGTGATGA,0.159
22,ATGAAGCA,-0.00505
23,ACTTTGAC,0.108
24,TAGTCCCA,-0.0583
25,GATTCCTA,0.0143

row,Sequence,PBM E-score
1,ACTAGAAA,-0.0101
2,AACCCAAC,-0.109
3,AGCAGAAA,0.164
4,ATGCTCAG,0.0145
5,AGAGATGA,-0.0883
6,AGCGCATG,0.00571
7,CATTAGCG,0.02
8,CTCAATAC,0.117
9,GTTCATGA,0.262
10,AATAAGGG,-0.0256
11,CTATCCAA,-0.0799
12,AACATCGG,-0.0901
13,TCCCTTCA,-0.0837
14,ACACCCAG,-0.194
15,AGAGAATA,0.0902
16,AAACATTG,0.111
17,AGTAATTC,0.23
18,AGTCGAGC,-0.117
19,CACATCGG,-0.0425
20,GGCACCTA,-0.156
21,AGCATCTA,0.0079
22,TGTATACA,0.272
23,GTGCATTA,0.0248
24,GCAGCCTA,-0.106
25,ATTTAAGC,0.161

row,Sequence,PBM E-score
1,CGAATCCA,-0.0831
2,CTTCATTA,0.178
3,CTACTTCC,0.0698
4,TAGTGATA,-0.0696
5,CGAGGTAC,0.00379
6,AAATGGGC,-0.226
7,ATATTCTA,0.231
8,AGCTGACG,0.158
9,GGACCAAC,-0.0534
10,CGACATGA,-0.0493
11,TAGCTTCA,0.00355
12,CATATGTA,0.111
13,ATAGAGCA,-0.0263
14,GTCAGGTA,-0.0251
15,GTATGTGA,-0.0425
16,CGTAAACA,0.256
17,GACGTAGC,-0.084
18,ACGCTACG,-0.106
19,CTGTCCTC,-0.205
20,CTTCGGCA,-0.198
21,AGGTTCTC,-0.134
22,ACCAAATC,-0.126
